Paper PMC7285181 (Pharmaceutics, 2020)
Structures can show the parent of a compound that is named as a salt.

System: histamine level in plasma
Assay: Plasma histamine level after compound 48/80 (o-phthalaldehyde spectrofluorometric procedure)
Type: in vivo, mice
Experimental: Five groups each of 8 male albino mice were used in this experiment. Mice were housed 4 per cage and were maintained at room temperature (25 ± 0.5 °C). All experiments were performed in compliance with the guidelines approved by the ethics committee of Faculty of Pharmacy, The British University in Egypt (approval number Ex-1904). The mice in the first group were administered phosphate buffer saline orally (negative control group), while the second group were administered phosphate buffer saline 1 hour prior to an intraperitoneal injection of 8 mg/kg of the mast cell degranulator compound 48/80 which induces systemic anaphylaxis-like reactions in mice (positive control group). […] The mortality was monitored for 1 h after induction of anaphylactic shock. After the mortality test, blood was obtained from the heart of each mouse by cardiac puncture.
The obtained blood samples were centrifuged at 400 g for 10 min in a cooling centrifuge at 4 °C. The plasma was withdrawn, and the histamine content was measured by the o-phthalaldehyde spectrofluorometric procedure as mentioned by Shore et al.. The fluorescent intensity was measured at 438 nm in a spectrofluorometer.

## CC(C)(C(=O)O)c1ccc(C(O)CCCN2CCC(C(O)(c3ccccc3)c3ccccc3)CC2)cc1 (centres unmarked) [FEX powder, Fexofenadine HCl]
Mice plasma, n = 8, oral 1 h before i.p. compound 48/80 (8 mg/kg), ± SD
  Histamine Concentration: 236.4 ± 12.9 ng/mL
mice, versus compound 48/80 positive control group
  Inhibition of histamine release (plasma histamine level): 7.9%
